{"source": "PubChem BioAssay AID1159590, NIAID, 2016", "test": "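Finding genes that mouse macrophage TLR2 agonist signalling relies on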", "cell system": "mouse RAW264.7 macrophage reporter cells expressing GFP-p65 and a Tnf promoter-mCherry", "reagents": "single siRNA against mouse genes", "time to read-out": "48 to 72 hours after siRNA transfection, then 40 minutes of ligand", "challenge": "Pam3CSK4 (TLR2/1 agonist) for 40 minutes before fixation; dose not given", "detection": "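GFP-p65 nuclear to cytoplasmic intensity ratio from imaging, normalised per plate by median and MAD, given as robust z against negative controls, mean of replicates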", "direction": "p65 nuclear entry z-score: higher = more p65 moved into nuclei than in negative-control wells", "active means": "In these data the active calls have p65 nuclear entry z-score, replicate mean at about -1.5 or lower, or at about 1.5 or higher", "meaning of the calls": "active = strong change, up or down; inactive = little change", "note": "Shown is an unselected part of 756 reagents. 128 of them (17%) count as active. 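Calls are two-sided: both reduced and increased p65 nuclear entry count as active.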 Unmarked entries are inactive. Reagents against one gene are numbered here. The record does not give: the amount of reagent."}
{"gene":"Peli1 (pellino 1)","siRNA no.":1,"p65 nuclear entry z-score, replicate mean":-0.982}
{"gene":"Peli1 (pellino 1)","siRNA no.":2,"p65 nuclear entry z-score, replicate mean":-0.544}
{"gene":"Peli1 (pellino 1)","siRNA no.":3,"p65 nuclear entry z-score, replicate mean":-0.091}
{"gene":"Peli1 (pellino 1)","siRNA no.":4,"p65 nuclear entry z-score, replicate mean":0.404}
{"gene":"Peli1 (pellino 1)","siRNA no.":5,"p65 nuclear entry z-score, replicate mean":"-1.76 (active)"}
{"gene":"Peli1 (pellino 1)","siRNA no.":6,"p65 nuclear entry z-score, replicate mean":0.816}
{"gene":"Casp8 (caspase 8)","siRNA no.":1,"p65 nuclear entry z-score, replicate mean":0.0849}
{"gene":"Casp8 (caspase 8)","siRNA no.":2,"p65 nuclear entry z-score, replicate mean":-1.06}
{"gene":"Casp8 (caspase 8)","siRNA no.":3,"p65 nuclear entry z-score, replicate mean":-0.693}
{"gene":"Casp8 (caspase 8)","siRNA no.":4,"p65 nuclear entry z-score, replicate mean":0.313}
{"gene":"Casp8 (caspase 8)","siRNA no.":5,"p65 nuclear entry z-score, replicate mean":"-1.72 (active)"}
{"gene":"Casp8 (caspase 8)","siRNA no.":6,"p65 nuclear entry z-score, replicate mean":-0.992}
{"gene":"Tradd (TNFRSF1A-associated via death domain)","siRNA no.":1,"p65 nuclear entry z-score, replicate mean":"-2.4 (active)"}
{"gene":"Tradd (TNFRSF1A-associated via death domain)","siRNA no.":2,"p65 nuclear entry z-score, replicate mean":1.11}
{"gene":"Tradd (TNFRSF1A-associated via death domain)","siRNA no.":3,"p65 nuclear entry z-score, replicate mean":-0.778}
{"gene":"Tradd (TNFRSF1A-associated via death domain)","siRNA no.":4,"p65 nuclear entry z-score, replicate mean":0.454}
{"gene":"Tradd (TNFRSF1A-associated via death domain)","siRNA no.":5,"p65 nuclear entry z-score, replicate mean":-0.844}
{"gene":"Tradd (TNFRSF1A-associated via death domain)","siRNA no.":6,"p65 nuclear entry z-score, replicate mean":-0.536}
